Experimental data as given in patent publication US10088479B2, “Biomarker and uses thereof” (ISIS INNOVATION LIMITED, priority 2014, dated 2018).
Where no end group is shown, it is not given here. [ ]: non-standard residue; d: D form. Cit = NC(=O)NCCC[C@H](N)C(=O)O

Test system: RA sera
Test: IgG response to cyclic citrullinated FBG peptides in RA and control sera
Assay type: binding, human
Conditions: RA sera n=20, positivity by 95th percentile of the normal group
Excerpt: (A) Peptides with sequences corresponding to the amino acid sequence of FBG were designed, with the addition of cysteine residues at the amino and carboxy termini and the exchange of arginine for citrulline residues at positions identified by LC-MS/MS. (B) IgG response to citrullinated FBG peptides and arginine containing control peptides in patients with rheumatoid arthritis (RA; n=20) and healthy controls (n=20). The 95th percentile of the control sera was used to determine positivity (dashed line). Mann-Whitney U test was used to calculate p values for differences between groups (n.s.=no significant difference, *=p<0.05 and **=p<0.01, ***=p<0.001, […]).
With reference to FIG. 31, the antibody response in 20 RA and 20 control sera to 6 cyclic FBG peptides, encompassing citrulline residues was evaluated.

Substance | RA patients positive for the epitope
CEMKL-Cit-PSNF-Cit-NLEGRRKRC [CIT209/214] | 20%
CEMKLRPSNFRNLEG-Cit-Cit-KRC [CIT219/220] | 30%
CVFLRRKNG[Cit]ENFYQNWC (cysteine pairing not given here) [CIT55] | about 35%
